Experimental data: article doi:10.1101/373209

B1: MYC-BCL-3 (protein, UniProt P20749 1-454)
chain: MPRCPAGAMDEGPVDLRTRPKAAGLPGAALPLRKRPLRAPSPEPAAPRGAAGLVVPLDPLRGGCDLPAVPGPPHGLARPEALYYPGALLPLYPTRAMGSPFPLVNLPTPLYPMMCPMEHPLSADIAMATRADEDGDTPLHIAVVQGNLPAVHRLVNLFQQGGRELDIYNNLRQTPLHLAVITTLPSVVRLLVTAGASPMALDRHGQTAAHLACEHRSPTCLRALLDSAAPGTLDLEARNYDGLTALHVAVNTECQETVQLLLERGADIDAVDIKSGRSPLIHAVENNSLSMVQLLLQHGANVNAQMYSGSSALHSASGRGLLPLVRTLVRSGADSSLKNCHNDTPLMVARSRRVIDILRGKATRPASTSQPDPSPDRSANTSPESSSRLSSNGLLSASPSSSPSQSPPRDPPGFPMAPPNFFLPSPSPPAFLPFAGVLRGPGRPVPPSPAPGGS

Biological target: FLAG-TPL-2ΔNES (UniProt Q63562)
Experiment: co-IP

Row | Molecule | binding
1 | XP-p105 (from UniProt P19838 1-968) | binds
2 | B1 | binds

These are yes or no findings as the source states them, for the method shown. In cells and extracts the contact can be indirect. A result given as binding can be weak or reduced; the word gives no strength. Where a sequence is shown, tags or fusion partners need not be part of it.
